These are yes or no findings as the source states them, for the method shown. In cells and extracts the contact can be indirect. Some entries that bind do so weakly or less than the wild type.
Legend:
[1] = molecular target: p110α catalytic subunit of PI3K, mouse heart (mouse (endogenous in adult mouse heart tissue)) (UniProt P42337); test: co-IP; adult mouse heart tissue solubilised in 1% Triton X-100 lysis buffer (25 mM Tris/HCl pH 7.4, 150 mM NaCl, 0.5 mM EDTA), antibody overnight at 4°C, protein A magnetic beads, three washes; endogenous proteins; Western blot
[2] = molecular target: p110α catalytic subunit of PI3K, neonatal rat cardiomyocytes (rat (endogenous in NRCM)); test: co-IP; NRCM solubilised in 1% Triton X-100 lysis buffer (25 mM Tris/HCl pH 7.4, 150 mM NaCl, 0.5 mM EDTA), antibody overnight at 4°C, protein A magnetic beads, three washes; endogenous proteins; Western blot

Amino acid sequences for entries named in this document (tags omitted).
UniProt P42337: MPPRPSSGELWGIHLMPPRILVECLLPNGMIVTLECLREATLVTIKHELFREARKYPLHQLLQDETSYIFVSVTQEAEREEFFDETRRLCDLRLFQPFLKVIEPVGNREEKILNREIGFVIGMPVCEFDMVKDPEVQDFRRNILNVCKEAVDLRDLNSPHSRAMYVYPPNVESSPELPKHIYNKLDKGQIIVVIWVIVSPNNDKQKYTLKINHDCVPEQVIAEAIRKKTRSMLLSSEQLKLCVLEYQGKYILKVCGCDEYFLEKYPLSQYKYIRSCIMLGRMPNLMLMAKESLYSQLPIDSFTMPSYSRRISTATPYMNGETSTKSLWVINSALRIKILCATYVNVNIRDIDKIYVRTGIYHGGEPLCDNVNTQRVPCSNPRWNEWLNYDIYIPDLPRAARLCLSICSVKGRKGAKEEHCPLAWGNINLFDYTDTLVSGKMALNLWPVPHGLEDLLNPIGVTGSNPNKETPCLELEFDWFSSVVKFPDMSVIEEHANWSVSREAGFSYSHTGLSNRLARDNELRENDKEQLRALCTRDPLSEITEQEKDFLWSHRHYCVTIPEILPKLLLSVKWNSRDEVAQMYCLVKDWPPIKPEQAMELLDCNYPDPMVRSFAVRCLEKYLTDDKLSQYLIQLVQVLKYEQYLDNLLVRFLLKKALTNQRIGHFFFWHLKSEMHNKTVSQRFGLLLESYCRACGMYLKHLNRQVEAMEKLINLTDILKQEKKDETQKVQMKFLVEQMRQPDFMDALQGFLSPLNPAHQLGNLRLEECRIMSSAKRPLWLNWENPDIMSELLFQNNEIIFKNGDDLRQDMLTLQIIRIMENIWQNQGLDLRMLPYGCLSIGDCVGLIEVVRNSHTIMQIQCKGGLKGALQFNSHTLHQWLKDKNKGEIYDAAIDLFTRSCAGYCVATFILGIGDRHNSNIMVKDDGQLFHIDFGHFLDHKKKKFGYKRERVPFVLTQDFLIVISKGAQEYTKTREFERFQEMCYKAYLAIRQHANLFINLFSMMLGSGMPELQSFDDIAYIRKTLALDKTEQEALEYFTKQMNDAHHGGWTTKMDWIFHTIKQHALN

PI3K interacting protein1 (Pik3ip1), mouse heart (from UniProt Q7TMJ8 22-264)
binding [1]: binds

B1: PI3K interacting protein1 (Pik3ip1), neonatal rat cardiomyocytes (protein, UniProt Q56A20 22-267)
chain: SGGCFWDNGHLYREDQPSPAPGLRCLNWLAAQGSGESLAQPSPGNHNYCRNPDQDPRGPWCYISSETGVPEKRPCEDLRCPETTSQAPPPPPPSSTTELEEKFGVPGDKETQVFPPANALPARSEAAEVQPVIGISQRVRMNSKEKKDLGTLGYVLGVTMTVIIIAIGVGIVLGYTYKRGKDLKEQHEQKVCEREMQRITLPLSAFTNPTCEIMDEKTIIVHSNQTPADVQEGSTLLTDQAGTPGA
binding [2]: binds

Source: publication PMC4380398
